Measured values from patent US20250043001A1.
Residue numbers refer to the chain shown, from its start. Results are given in words; binding and its absence hold for the method and conditions named. Some binding calls cover weakened binding; strength is not graded here. Each block holds one binder with its values, some of them ahead of it.

Protein sequences, listed by entry. Tags and fused reporters are not part of them. Residues count along the entry.
UniProt P31997, residues 35-320: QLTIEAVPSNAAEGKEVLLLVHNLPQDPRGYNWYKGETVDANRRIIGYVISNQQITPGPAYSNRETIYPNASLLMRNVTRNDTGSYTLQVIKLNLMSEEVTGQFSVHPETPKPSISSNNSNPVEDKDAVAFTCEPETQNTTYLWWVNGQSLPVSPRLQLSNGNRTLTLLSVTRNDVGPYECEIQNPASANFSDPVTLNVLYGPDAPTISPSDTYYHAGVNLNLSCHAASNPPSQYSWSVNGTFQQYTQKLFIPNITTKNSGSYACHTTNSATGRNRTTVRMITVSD
UniProt P06731, residues 35-685: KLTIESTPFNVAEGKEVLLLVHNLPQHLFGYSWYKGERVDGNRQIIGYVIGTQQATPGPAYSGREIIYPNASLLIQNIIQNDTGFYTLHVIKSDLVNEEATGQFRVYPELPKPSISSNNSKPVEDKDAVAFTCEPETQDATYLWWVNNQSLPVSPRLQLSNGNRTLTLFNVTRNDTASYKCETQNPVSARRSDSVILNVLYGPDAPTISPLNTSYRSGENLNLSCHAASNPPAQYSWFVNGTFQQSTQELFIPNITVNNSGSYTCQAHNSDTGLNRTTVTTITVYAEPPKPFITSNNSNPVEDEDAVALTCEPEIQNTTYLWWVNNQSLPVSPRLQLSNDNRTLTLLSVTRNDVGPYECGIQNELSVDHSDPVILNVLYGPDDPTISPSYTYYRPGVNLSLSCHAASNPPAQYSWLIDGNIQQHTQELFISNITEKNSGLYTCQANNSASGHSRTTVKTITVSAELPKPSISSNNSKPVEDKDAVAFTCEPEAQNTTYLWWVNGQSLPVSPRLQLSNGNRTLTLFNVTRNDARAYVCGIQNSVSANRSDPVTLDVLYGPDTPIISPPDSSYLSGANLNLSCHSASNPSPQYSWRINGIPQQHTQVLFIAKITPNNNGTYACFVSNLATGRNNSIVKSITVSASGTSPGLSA

Columns and labels:
CEACAM8 [1] = target: CEACAM8 (UniProt P31997); experiment: Octet (FIG. 79)
CEACAM5 [2] = target: CEACAM5 (UniProt P06731); experiment: Octet sensorgrams (FIG. 79)
CEACAM5 [3] = target: CEACAM5 (UniProt P06731); experiment: Octet (FIG. 80)
CEACAM8 [4] = target: CEACAM8 (UniProt P31997); experiment: Octet (FIG. 80)

binding (CEACAM8 [1]): binds
B1: CEA-A_H0L0 (antibody, V domains shown)
VH: EVKLVESGGGLVQPGGSLRLSCATSGFTFTDYYMNWVRQPPGKALEWLGFIGNKANGYTTEYSASVKGRFTISRDKSQSILYLQMNTLRAEDSATYYCTRDRGLRFYFDYWGQGTTLTVSS
VL: QTVLSQSPAILSASPGEKVTMTCRASSSVTYIHWYQQKPGSSPKSWIYATSNLASGVPARFSGSGSGTSYSLTISRVEAEDAATYYCQHWSSKPPTFGGGTKLEIK

binding (CEACAM5 [2]): binds
B2: CEA-A_H1L1 (antibody, V domains shown)
VH: EVQLVESGGGLVQPGGSLRLSCATSGFTFTDYYMNWVRQAPGKALEWVGFIGNKANGYTTEYSASVKGRFTISRDKSKSSLYLQMNSLKTEDTAVYYCTRDRGLRFYFDYWGQGTLVTVSS
VL: QTVLTQSPATLSLSPGERATLSCRASSSVTYIHWYQQKPGQSPRSLIYATSNLASGVPARFSGSGSGTDYTLTISSLEPEDFAVYYCQHWSSKPPTFGGGTKVEIK

binding (CEACAM5 [2]): binds
B3: CEA-A_H1L2 (antibody, V domains shown)
VH: B2 VH
VL: B2 VL with Q1E, T2I, S42A, S45L, V57I, Y70F

binding (CEACAM5 [3]): binds | binding (CEACAM8 [4]): binds
B4: CEA-A_H1.7_L2.15 (antibody, V domains shown)
VH: B2 VH with T24A, A44G, G57A
VL: B2 VL with Q1E, T2I, S42A, R44K, V57I, Y70F
